# Measured values published in the supplement of paper PMC4604168 (melanoma cell lines).
# This is one part of the list. Single values are uncertain, as repeats are few or missing.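 The apoptosis fraction was the count of cleaved-PARP antibody-stained nuclei relative to all DNA-stained nuclei, imaged in 1,536-well plates. Screening doses were set so most cells survived, and baseline and induced cleaved-PARP levels vary greatly across cell lines.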
# Experiments:
# Assay in all cases: cleaved PARP positive nuclei fraction relative to DMSO control; melanoma cells; higher = more apoptosis
# Conditions in all cases: library dose: low library concentration; 72 h
# 501Mel = system: 501Mel
# A101D = system: A101D
# A2058 = system: A2058
# A375 = system: A375
# C32 = system: C32
# CBRC008 = system: CBRC008 (line from a melanoma biopsy)
# CBRC013 = system: CBRC013 (line from a melanoma biopsy)
# CBRC014 = system: CBRC014 (line from a melanoma biopsy)
# CBRC016 = system: CBRC016 (line from a melanoma biopsy)
# CBRC017 = system: CBRC017 (line from a melanoma biopsy)
# COLO792 = system: COLO792
# COLO800 = system: COLO800
# COLO829 = system: COLO829
# G361 = system: G361
# IPC-298 = system: IPC-298
# IST-MEL1 = system: IST-MEL1
# LB2518-MEL = system: LB2518-MEL
# LOXIMVI = system: LOXIMVI
# MEL-HO = system: MEL-HO
SMILES,cleaved PARP positive nuclei fraction (501Mel) [%],cleaved PARP positive nuclei fraction (A101D) [%],cleaved PARP positive nuclei fraction (A2058) [%],cleaved PARP positive nuclei fraction (A375) [%],cleaved PARP positive nuclei fraction (C32) [%],cleaved PARP positive nuclei fraction (CBRC008) [%],cleaved PARP positive nuclei fraction (CBRC013) [%],cleaved PARP positive nuclei fraction (CBRC014) [%],cleaved PARP positive nuclei fraction (CBRC016) [%],cleaved PARP positive nuclei fraction (CBRC017) [%],cleaved PARP positive nuclei fraction (COLO792) [%],cleaved PARP positive nuclei fraction (COLO800) [%],cleaved PARP positive nuclei fraction (COLO829) [%],cleaved PARP positive nuclei fraction (G361) [%],cleaved PARP positive nuclei fraction (IPC-298) [%],cleaved PARP positive nuclei fraction (IST-MEL1) [%],cleaved PARP positive nuclei fraction (LB2518-MEL) [%],cleaved PARP positive nuclei fraction (LOXIMVI) [%],cleaved PARP positive nuclei fraction (MEL-HO) [%]
"O=C(O)c1ccc2c(c1)nc(Nc1cccc(Cl)c1)c1ccncc12 + CN(NC(=O)CC(=O)NN(C)C(=S)c1ccccc1)C(=S)c1ccccc1 [STA4783] (first compound 0.4 µM, partner dose 0.006 µM)",506,78.8,144,1010,86.9,474,151,715,278,184,172,58.6,200,112,60.3,92.9,89,60,96.9
"CNC(=O)c1cc(Oc2ccc(NC(=O)Nc3ccc(Cl)c(C(F)(F)F)c3)cc2)ccn1 [sorafenib] + O=C(CCCCCCC(=O)Nc1ccccc1)NO [vorinostat] (first compound 0.4 µM, partner dose 0.08 µM)",77.2,79.4,76.4,60.3,124,89.5,89.9,77.3,44.9,86.7,47.3,119,53.5,162,49.6,104,42.6,26.5,62.5
"O=C(O)c1ccc2c(c1)nc(Nc1cccc(Cl)c1)c1ccncc12 + Cc1ccc(NC(=O)c2cccc(N(C)C)c2)cc1NC(=O)c1ccc(O)cc1 [ZM336372] (first compound 0.4 µM, partner dose 2 µM)",91.2,83.6,190,131,133,58,93.9,156,155,161,147,57.2,146,137,131,64.1,92.9,51,57.5
"O=C(O)[C@@H]1[O][Sb](=[O])([O][Sb]2(=[O])[O][C@H]([C@H](O)CO)[C@H](O)[C@H](C(=O)O)[O]2)[O][C@H]([C@H](O)CO)[C@@H]1O (stereo partly drawn) [stibogluconate] + COc1cc2c(Oc3ccc4[nH]c(C)cc4c3F)ncnc2cc1OCCCN1CCCC1 [cediranib] (first compound 2 µM, partner dose 0.4 µM)",234,88.5,131,120,94.8,58,80.7,86.2,113,93.2,99.7,162,103,53.7,95.9,180,111,118,305
"Nc1nc(F)nc2c1ncn2[C@@H]1O[C@H](CO)[C@@H](O)[C@@H]1O [fludarabine] + O=C(Nc1cccc(Cl)c1)Nc1ncc(CCNc2ncnc3ccsc23)s1 [SNS314] (first compound 0.2 µM, partner dose 0.0008 µM)",788,125,62,5650,173,222,180,111,32.5,104,117,106,76.1,90.3,67.6,225,100,41.4,65.9
"O=C(O)c1ccc2c(c1)nc(Nc1cccc(Cl)c1)c1ccncc12 + Cc1cc(N2CCOCC2)cc2[nH]c(-c3c(NC[C@@H](O)c4cccc(Cl)c4)cc[nH]c3=O)nc12 [BMS536924] (first compound 0.4 µM, partner dose 0.2 µM)",93.7,386,179,235,271,281,102,138,156,157,135,95.3,103,92.8,98.1,59.8,109,133,67.5
"CN1CCN(c2ccc3nc(-c4c(N)c5c(F)cccc5[nH]c4=O)[nH]c3c2)CC1 [Dovitinib] + CC1(C)NC(=O)N(c2ccc([N+](=O)[O-])c(C(F)(F)F)c2)C1=O [nilutamide] (first compound 0.1 µM, partner dose 1 µM)",122,41.4,77.2,54.8,30,54.2,127,76.3,56.2,61.6,27.5,81,82.7,52.4,266,50.9,80.2,82.7,135
"O=C(O)[C@@H]1[O][Sb](=[O])([O][Sb]2(=[O])[O][C@H]([C@H](O)CO)[C@H](O)[C@H](C(=O)O)[O]2)[O][C@H]([C@H](O)CO)[C@@H]1O (stereo partly drawn) [stibogluconate] + NC(=O)Nc1cc(-c2cccc(F)c2)sc1C(=O)N[C@H]1CCCNC1 [AZD7762] (first compound 2 µM, partner dose 0.02 µM)",87.5,85.5,138,482,117,62.8,83,95.3,70.6,150,49.2,37.5,61,47.4,85.4,122,62.7,14.7,65.9
"CCCS(=O)(=O)Nc1ccc(F)c(C(=O)c2c[nH]c3ncc(Cl)cc23)c1F + C[C@@H]1CCN(C(=O)CC#N)C[C@@H]1N(C)c1ncnc2[nH]ccc12 [CP690550] (first compound 0.08 µM, partner dose 1 µM)",89.1,45.7,106,387,94.2,425,156,80.3,163,75.1,92.5,165,79.3,118,189,99.4,89.5,44,104
"C[C@@H](Oc1cc(-c2cnn(C3CCNCC3)c2)cnc1N)c1c(Cl)ccc(F)c1Cl [Crizotinib] + O=C(O)c1ccc(-c2c[nH]c3ncc(-c4ccccc4)cc23)cc1C1CCCC1 [GSK650394] (first compound 0.2 µM, partner dose 0.16 µM)",76.1,87.6,18.8,43.1,137,412,102,92.8,135,109,195,154,65.6,108,92.9,149,138,37.8,144
"CN1CCN(c2ccc3nc(-c4c(N)c5c(F)cccc5[nH]c4=O)[nH]c3c2)CC1 [Dovitinib] + NCC(=O)Nc1ccc(-n2nc(C(F)(F)F)cc2-c2ccc3c(ccc4ccccc43)c2)cc1 [OSU03012] (first compound 0.1 µM, partner dose 1 µM)",216,75.7,62.6,7230,134,207,116,86.3,131,238,72.4,116,179,97.6,106,212,84.2,141,98.7
"C=C(c1ccc(C(=O)O)cc1)c1cc2c(cc1C)C(C)(C)CCC2(C)C [Bexarotene] + NCC(=O)Nc1ccc(-n2nc(C(F)(F)F)cc2-c2ccc3c(ccc4ccccc43)c2)cc1 [OSU03012] (first compound 2 µM, partner dose 1 µM)",751,214,73.4,4210,120,240,220,109,89.8,130,72.8,138,38.4,91.3,109,112,114,39.6,56.7

# Part of the list above with just cleaved PARP positive nuclei fraction (IPC-298) [%] and cleaved PARP positive nuclei fraction (LB2518-MEL) [%].
SMILES | cleaved PARP positive nuclei fraction (IPC-298) [%] | cleaved PARP positive nuclei fraction (LB2518-MEL) [%]
O=C(O)c1ccc2c(c1)nc(Nc1cccc(Cl)c1)c1ccncc12 + Cc1ccc(NC(=O)c2cccc(N(C)C)c2)cc1NC(=O)c1ccc(O)cc1 [ZM336372] (first compound 0.4 µM, partner dose 2 µM) | 131 | 92.9
O=C(O)[C@@H]1[O][Sb](=[O])([O][Sb]2(=[O])[O][C@H]([C@H](O)CO)[C@H](O)[C@H](C(=O)O)[O]2)[O][C@H]([C@H](O)CO)[C@@H]1O (stereo partly drawn) [stibogluconate] + COc1cc2c(Oc3ccc4[nH]c(C)cc4c3F)ncnc2cc1OCCCN1CCCC1 [cediranib] (first compound 2 µM, partner dose 0.4 µM) | 95.9 | 111
